# The list is a part of this screen's results and no random one: it is rich in T/C values a quarter to a half above the control, in often repeated tests (any T/C) and in doses without a T/C. Other doses and runs of a compound stand elsewhere. T/C is the treated group as % of the vehicle group. Some entries give survivors of the animals treated and no T/C: the source files T/C as zero there, which appears to mark a toxic dose or a test without result, not a measured value. Some doses without a T/C left all or most animals alive at the check, yet need not have been tolerated: survival well below the control is almost never listed, so the zero probably covers shortened survival too. Survivors were counted at the toxicity check, usually on the fifth day, unless a day is given; later deaths do not show. Schedules are NCI's codes, read here as Q, the interval in days (D) or hours (H), X, the number of doses. Some molecules as drawn cover several salts, stereoisomers or complexes of the source; a dose is that of the sample tested. Signs of the kind (2×) stand for listed records that agree. For survival time, this PubChem deposit counts one and a half times the control or more as active, and values a quarter to a half above the control carry no call in these data; other NCI protocols may use other cut-offs. Some T/C values are followed by the survivors on the day toxicity was checked, most often the fifth; where none is given, no animal had died by that day. Some doses were run more than once; their values stand side by side, smallest first.
# System: BDF1 mice, Lewis lung carcinoma iv, survival T/C
# Experiment: NCI In Vivo Anticancer Drug Screen. Data for tumor model Lewis Lung Carcinoma (intravenous) in B6D2F1 (BDF1) mice
# Details: T/C endpoint: median survival time, higher T/C = longer survival
# Method: The antitumor activity of compounds was measured in mice bearing transplantable tumors. Survival or tumor size were measured and the results are expressed as the measurement made in the treated group (T) divided by the measurement made in the vehicle treated control group (C). The tumor model used in this assay is Lewis Lung Carcinoma (intravenous) in B6D2F1 (BDF1) mice
# [1] = dose: 200.0 mg/kg/injection, schedule: Q01DX009 (ip), vehicle: saline with Tween-80
# [2] = dose: 100.0 mg/kg/injection, schedule: Q01DX009 (ip), vehicle: Klucel (hydroxypropylcellulose) (HPC)
# [3] = dose: 200.0 mg/kg/injection, schedule: Q01DX009 (ip), vehicle: Klucel (hydroxypropylcellulose) (HPC)
# [4] = dose: 400.0 mg/kg/injection, schedule: Q01DX009 (ip), vehicle: Klucel (hydroxypropylcellulose) (HPC)
# [5] = dose: 2.0 mg/kg/injection, schedule: Q01DX009 (ip), vehicle: water
compound,measurement,setting,value
CN=C(N)N/N=C(\C)c1ccc2oc3ccc(/C(C)=N/NC(N)=NC)cc3c2c1,survivor count,"dose: 50.0 mg/kg/injection, schedule: Q01DX009 (ip), vehicle: saline with Tween-80",10 of 10
same,survivor count,"dose: 100.0 mg/kg/injection, schedule: Q01DX009 (ip), vehicle: saline with Tween-80",5 of 10
same,survivor count,[1],0 of 10
[Cl][Mn][Cl],survivor count,"dose: 128.0 mg/kg/injection, schedule: Q01DX009 (ip), vehicle: saline",0 of 10
O=C1c2ccccc2C(=O)c2c(NCCNCCO)ccc(NCCNCCO)c21,T/C,"dose: 1.0 mg/kg/injection, schedule: Q01DX005 (ip), vehicle: saline",129 % of control
same,T/C,"dose: 2.0 mg/kg/injection, schedule: Q01DX005 (ip), vehicle: saline with Tween-80",147 % of control
same,T/C,"dose: 4.0 mg/kg/injection, schedule: Q01DX005 (ip), vehicle: saline",129 % of control
same,T/C,"dose: 8.0 mg/kg/injection, schedule: Q01DX009 (ip), vehicle: saline with Tween-80",140 % of control
same,survivor count,"dose: 16.0 mg/kg/injection, schedule: Q01DX009 (ip), vehicle: saline with Tween-80",10 of 10
same,survivor count,"dose: 32.0 mg/kg/injection, schedule: Q01DX009 (ip), vehicle: saline with Tween-80",10 of 10
O=c1[nH]c(=O)n(C2CC(O)C(CO)O2)cc1F (centres undefined),T/C,"dose: 103.0 mg/kg/injection, schedule: Q04DX003 (ip), vehicle: saline, evaluated on day 60",105 and 114 % of control
same,T/C,"dose: 103.0 mg/kg/injection, schedule: Q04DX003 (ip), vehicle: saline, evaluated on day 90",102 and 106 % of control
same,T/C,"dose: 147.0 mg/kg/injection, schedule: Q04DX003 (ip), vehicle: saline, evaluated on day 60",109 and 114 % of control
same,T/C,"dose: 147.0 mg/kg/injection, schedule: Q04DX003 (ip), vehicle: saline, evaluated on day 90",122 and 140 % of control [7 of 8 alive]
same,T/C,"dose: 147.0 mg/kg/injection, schedule: Q04DX006 (ip), vehicle: saline",141 % of control
same,T/C,"dose: 210.0 mg/kg/injection, schedule: Q04DX003 (ip), vehicle: saline, evaluated on day 60",122 and 132 % of control
same,T/C,"dose: 210.0 mg/kg/injection, schedule: Q04DX003 (ip), vehicle: saline, evaluated on day 90",118 [7 of 8 alive] and 133 % of control
same,T/C,"dose: 300.0 mg/kg/injection, schedule: Q04DX003 (ip), vehicle: saline, evaluated on day 60",131 and 165 % of control
same,T/C,"dose: 300.0 mg/kg/injection, schedule: Q04DX003 (ip), vehicle: saline, evaluated on day 90",146 and 148 % of control
same,survivor count,"dose: 429.0 mg/kg/injection, schedule: Q04DX003 (ip), vehicle: saline",8 of 8
Nc1nc(SCc2ccccc2)c2ncn(C3OC(CO)CC3O)c2n1 (centres undefined),survivor count,[2],10 of 10
same,survivor count,[3],10 of 10
same,survivor count,[4],8 of 10
COc1cc(OC)c(OC)cc1/C=C\c1ccnc2ccccc12,survivor count,[4],2 of 10
C[n+]1cccc(NC(=O)c2ccc(NC(=O)C34CCC(C(=O)Nc5ccc(C(=O)Nc6ccc[n+](C)c6)cc5)(CC3)CC4)cc2)c1,survivor count,"dose: 20.0 mg/kg/injection, schedule: Q01DX009 (ip), vehicle: saline with Tween-80",10 of 10
same,survivor count,"dose: 40.0 mg/kg/injection, schedule: Q01DX009 (ip), vehicle: saline with Tween-80",10 of 10
same,survivor count,"dose: 80.0 mg/kg/injection, schedule: Q01DX009 (ip), vehicle: saline with Tween-80",6 of 10
same,survivor count,"dose: 160.0 mg/kg/injection, schedule: Q01DX009 (ip), vehicle: saline with Tween-80",0 of 10
CCC(C)n1ncc2c(N(C)C)ncnc21 (centres undefined),survivor count,"dose: 100.0 mg/kg/injection, schedule: Q01DX009 (ip), vehicle: saline",9 of 10
CC12CC(C(=O)O)C3(O)CC(C)(C1)CC(C)(C2)C3 (centres undefined) (tested in a mixture with another compound),survivor count,"dose: 400.0 mg/kg/injection, schedule: Q01DX009 (ip), vehicle: saline with Tween-80",0 of 10
CC[C@@]1(O)C[C@H](OC2CC(N(C)C)C(OC3CC(O)C(OC4CCC(=O)C(C)O4)C(C)O3)C(C)O2)c2c(cc3c(c2O)C(=O)c2c(O)ccc(O)c2C3=O)[C@H]1C(=O)OC (some centres undefined),T/C,"dose: 1.0 mg/kg/injection, schedule: Q01DX009 (ip), vehicle: water",125 % of control
same,T/C,"dose: 1.26 mg/kg/injection, schedule: Q01DX009 (ip), vehicle: water",126 % of control
same,T/C,"dose: 1.8 mg/kg/injection, schedule: Q01DX009 (ip), vehicle: water",131 % of control
same,T/C,[5],131 % of control
same,survivor count,[5],10 of 10
same,survivor count,"dose: 2.57 mg/kg/injection, schedule: Q01DX009 (ip), vehicle: water",8 of 8
same,T/C,"dose: 2.74 mg/kg/injection, schedule: Q04DX003 (ip), vehicle: water",126 % of control
same,survivor count,"dose: 3.67 mg/kg/injection, schedule: Q01DX009 (ip), vehicle: water",8 of 8
same,survivor count,"dose: 4.0 mg/kg/injection, schedule: Q01DX009 (ip), vehicle: water",10 of 10 (2×)
same,T/C,"dose: 5.6 mg/kg/injection, schedule: Q04DX003 (ip), vehicle: water",130 % of control
same,survivor count,"dose: 8.0 mg/kg/injection, schedule: Q01DX009 (ip), vehicle: water",6 of 10
same,survivor count,"dose: 8.0 mg/kg/injection, schedule: Q04DX003 (ip), vehicle: water",8 of 8 (2×)
same,T/C,"dose: 9.8 mg/kg/injection, schedule: Q01DX001 (ip), vehicle: water",136 % of control
same,survivor count,"dose: 13.3 mg/kg/injection, schedule: Q04DX003 (ip), vehicle: water",8 of 8
same,survivor count,"dose: 14.0 mg/kg/injection, schedule: Q01DX001 (ip), vehicle: water",8 of 8
same,survivor count,"dose: 20.0 mg/kg/injection, schedule: Q01DX001 (ip), vehicle: water",5 of 8
same,survivor count,"dose: 22.2 mg/kg/injection, schedule: Q04DX003 (ip), vehicle: water",3 of 8
COc1cc(C(=O)c2cocc2C(=O)c2ccc3c(c2)OCO3)cc(OC)c1OC,survivor count,[2],9 of 10
same,survivor count,[3],9 of 10
same,survivor count,"dose: 800.0 mg/kg/injection, schedule: Q01DX009 (ip), vehicle: Klucel (hydroxypropylcellulose) (HPC)",2 of 10
ClCC[Se](Cl)(Cl)c1ccccc1,survivor count,"dose: 6.25 mg/kg/injection, schedule: Q01DX009 (ip), vehicle: saline",10 of 10
same,survivor count,"dose: 12.5 mg/kg/injection, schedule: Q01DX009 (ip), vehicle: saline",2 of 10
same,survivor count,"dose: 25.0 mg/kg/injection, schedule: Q01DX009 (ip), vehicle: saline",3 of 10
O=C1c2ccccc2C(=O)c2c3c(cc(NCCNCCO)c21)N(CCO)CCN3,survivor count,"dose: 12.5 mg/kg/injection, schedule: Q01DX009 (ip), vehicle: DMSO",8 of 10
same,survivor count,"dose: 25.0 mg/kg/injection, schedule: Q01DX009 (ip), vehicle: DMSO",8 of 10
same,survivor count,"dose: 100.0 mg/kg/injection, schedule: Q01DX009 (ip), vehicle: DMSO",8 of 10
same,survivor count,"dose: 200.0 mg/kg/injection, schedule: Q01DX009 (ip), vehicle: DMSO",7 of 10
same,survivor count,"dose: 400.0 mg/kg/injection, schedule: Q01DX009 (ip), vehicle: DMSO",1 of 10
O=C(Nc1ccc(Cl)c(Cl)c1)Nc1c(Oc2ccc(Cl)c(Cl)c2)ccc(Cl)c1S(=O)(=O)O,T/C,"dose: 12.5 mg/kg/injection, schedule: Q01DX009 (ip), vehicle: Klucel (hydroxypropylcellulose) (HPC)",131 % of control
c1ccc2c3c(ccc2c1)Sc1ccc2ccccc2c1N3,T/C,[1],129 % of control [9 of 10 alive]
C[C@@H]1CN(C(=O)CCOS(C)(=O)=O)[C@@H](C)CN1C(=O)CCOS(C)(=O)=O,survivor count,[1],10 of 10
CN(C)c1ccc2c(N(C)C)cc(N(C)C)nc2c1,survivor count,"dose: 50.0 mg/kg/injection, schedule: Q01DX009 (ip), vehicle: Klucel (hydroxypropylcellulose) (HPC)",2 of 10
NC(Cc1cc([N+](=O)[O-])ccc1CN(CCCl)CCCl)C(=O)O (centres undefined),T/C,"dose: 9.0 mg/kg/injection, schedule: Q04DX003 (ip), vehicle: Klucel (hydroxypropylcellulose) (HPC)",130 % of control
same,survivor count,"dose: 25.0 mg/kg/injection, schedule: Q04DX003 (ip), vehicle: Klucel (hydroxypropylcellulose) (HPC)",8 of 8

# Reference: PubChem BioAssay AID274 (DTP/NCI, 2004)
